Results are given in words; binding and its absence hold for the method and conditions named. In cells and extracts the contact can be indirect. Some entries that bind do so weakly or less than the wild type.

Protein sequences, listed by entry. Tags and fused reporters are not part of them.
UniProt P25025: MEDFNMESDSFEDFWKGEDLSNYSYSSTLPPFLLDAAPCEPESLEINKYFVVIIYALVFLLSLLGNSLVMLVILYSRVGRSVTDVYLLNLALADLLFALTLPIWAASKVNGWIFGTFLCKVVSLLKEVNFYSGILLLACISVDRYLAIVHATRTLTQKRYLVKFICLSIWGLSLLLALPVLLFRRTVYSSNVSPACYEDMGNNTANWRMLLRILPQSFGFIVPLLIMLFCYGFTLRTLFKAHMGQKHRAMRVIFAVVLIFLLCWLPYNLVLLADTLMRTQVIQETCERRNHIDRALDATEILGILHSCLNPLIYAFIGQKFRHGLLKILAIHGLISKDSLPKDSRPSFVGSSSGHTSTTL
UniProt P63218: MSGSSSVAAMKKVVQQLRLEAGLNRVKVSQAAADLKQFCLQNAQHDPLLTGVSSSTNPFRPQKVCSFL

The target of the assay is C-X-C chemokine receptor type 2 (CXCR2) (human (endogenous in 293T)) (UniProt P25025). The assay can be described thus: co-IP; membrane proteins of 293T-GNG5^OE cells; immunoprecipitation with anti-CXCR2; western blot.

Turning to “human recombinant protein GNG5-FLAG (from UniProt P63218 1-68)”, the binding result is “binds”.

These data come from publication PMC11554683.
